The text below walks through data of the supplement of paper PMC12819154, “High-throughput peptide-centric local stability assay extends protein–ligand identification to membrane proteins, tissues and bacteria” (Nature Structural & Molecular Biology, 2025).

Chains of the proteins cited; added tags and fusions are not shown. Lines headed by an entry give the natural chain unless they say otherwise; changes in a name come on top.
UniProt P34913, whole entry: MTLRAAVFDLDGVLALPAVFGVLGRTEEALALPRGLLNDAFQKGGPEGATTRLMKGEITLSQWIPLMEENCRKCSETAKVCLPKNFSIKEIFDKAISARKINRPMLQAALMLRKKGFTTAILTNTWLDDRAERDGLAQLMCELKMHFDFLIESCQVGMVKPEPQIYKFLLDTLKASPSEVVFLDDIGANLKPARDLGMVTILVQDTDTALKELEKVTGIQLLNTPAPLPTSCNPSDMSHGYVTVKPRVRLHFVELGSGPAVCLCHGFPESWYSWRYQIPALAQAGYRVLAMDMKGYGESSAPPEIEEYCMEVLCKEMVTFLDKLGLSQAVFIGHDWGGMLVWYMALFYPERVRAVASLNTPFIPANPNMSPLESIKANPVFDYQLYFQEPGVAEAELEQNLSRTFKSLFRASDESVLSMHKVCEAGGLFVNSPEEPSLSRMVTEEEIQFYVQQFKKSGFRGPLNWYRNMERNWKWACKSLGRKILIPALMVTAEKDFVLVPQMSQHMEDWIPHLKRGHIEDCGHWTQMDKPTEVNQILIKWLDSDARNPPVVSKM
UniProt P36941: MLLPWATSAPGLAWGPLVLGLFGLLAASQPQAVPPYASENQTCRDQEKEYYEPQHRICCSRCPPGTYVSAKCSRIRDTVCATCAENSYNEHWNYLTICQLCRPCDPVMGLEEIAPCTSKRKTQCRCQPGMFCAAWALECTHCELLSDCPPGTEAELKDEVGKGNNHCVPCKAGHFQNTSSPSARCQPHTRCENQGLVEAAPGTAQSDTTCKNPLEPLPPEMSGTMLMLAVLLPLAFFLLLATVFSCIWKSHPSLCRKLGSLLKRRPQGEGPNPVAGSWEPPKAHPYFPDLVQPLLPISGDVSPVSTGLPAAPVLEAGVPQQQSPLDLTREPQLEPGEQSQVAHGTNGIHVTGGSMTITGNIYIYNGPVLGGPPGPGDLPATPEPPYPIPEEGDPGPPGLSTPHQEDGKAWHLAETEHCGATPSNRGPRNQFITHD
UniProt P30038: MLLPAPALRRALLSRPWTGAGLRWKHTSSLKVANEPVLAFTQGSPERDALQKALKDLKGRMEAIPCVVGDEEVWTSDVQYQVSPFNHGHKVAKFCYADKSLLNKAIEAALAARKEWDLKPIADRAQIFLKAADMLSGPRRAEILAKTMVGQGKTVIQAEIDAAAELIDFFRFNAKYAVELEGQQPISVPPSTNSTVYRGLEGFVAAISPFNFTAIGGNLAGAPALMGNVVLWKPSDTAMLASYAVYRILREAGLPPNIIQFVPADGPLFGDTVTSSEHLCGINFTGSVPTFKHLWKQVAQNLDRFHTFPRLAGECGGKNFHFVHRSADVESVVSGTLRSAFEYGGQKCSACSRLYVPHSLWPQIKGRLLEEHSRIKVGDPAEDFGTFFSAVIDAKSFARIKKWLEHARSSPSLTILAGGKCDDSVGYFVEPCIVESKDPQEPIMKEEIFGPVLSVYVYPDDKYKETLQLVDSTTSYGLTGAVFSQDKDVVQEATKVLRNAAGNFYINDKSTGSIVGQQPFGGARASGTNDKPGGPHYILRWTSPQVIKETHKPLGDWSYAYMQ
UniProt P41567, whole entry: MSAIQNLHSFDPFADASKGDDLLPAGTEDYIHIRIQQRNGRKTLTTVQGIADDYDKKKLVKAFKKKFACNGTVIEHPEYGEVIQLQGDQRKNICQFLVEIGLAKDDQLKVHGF
UniProt P43897: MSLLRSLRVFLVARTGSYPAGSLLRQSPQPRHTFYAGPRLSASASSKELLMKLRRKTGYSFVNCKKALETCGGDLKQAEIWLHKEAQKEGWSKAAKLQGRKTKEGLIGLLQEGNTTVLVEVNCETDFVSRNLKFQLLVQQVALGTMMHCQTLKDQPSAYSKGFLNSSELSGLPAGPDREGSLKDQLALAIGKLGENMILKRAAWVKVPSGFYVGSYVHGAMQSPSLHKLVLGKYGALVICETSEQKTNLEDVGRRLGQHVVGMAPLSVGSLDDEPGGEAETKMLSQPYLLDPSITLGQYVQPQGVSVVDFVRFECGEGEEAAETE
UniProt P35249, whole entry: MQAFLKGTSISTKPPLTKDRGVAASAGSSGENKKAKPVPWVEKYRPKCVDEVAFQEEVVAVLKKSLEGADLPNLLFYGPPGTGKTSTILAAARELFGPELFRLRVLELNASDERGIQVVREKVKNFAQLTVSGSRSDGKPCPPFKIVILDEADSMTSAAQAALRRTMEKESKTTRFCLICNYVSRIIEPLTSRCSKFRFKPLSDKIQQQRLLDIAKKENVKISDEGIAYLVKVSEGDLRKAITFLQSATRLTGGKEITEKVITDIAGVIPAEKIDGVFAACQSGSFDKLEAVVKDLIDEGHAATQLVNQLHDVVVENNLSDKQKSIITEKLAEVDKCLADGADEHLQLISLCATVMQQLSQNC
UniProt P31942: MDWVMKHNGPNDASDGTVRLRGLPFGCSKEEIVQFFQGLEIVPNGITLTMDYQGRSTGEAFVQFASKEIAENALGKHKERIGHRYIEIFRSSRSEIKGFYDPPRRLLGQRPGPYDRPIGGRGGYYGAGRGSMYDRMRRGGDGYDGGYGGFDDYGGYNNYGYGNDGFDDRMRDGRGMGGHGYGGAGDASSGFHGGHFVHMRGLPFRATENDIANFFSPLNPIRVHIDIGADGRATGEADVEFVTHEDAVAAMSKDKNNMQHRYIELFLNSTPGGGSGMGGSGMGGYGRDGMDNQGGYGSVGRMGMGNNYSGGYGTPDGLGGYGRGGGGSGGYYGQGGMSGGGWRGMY
UniProt P35610: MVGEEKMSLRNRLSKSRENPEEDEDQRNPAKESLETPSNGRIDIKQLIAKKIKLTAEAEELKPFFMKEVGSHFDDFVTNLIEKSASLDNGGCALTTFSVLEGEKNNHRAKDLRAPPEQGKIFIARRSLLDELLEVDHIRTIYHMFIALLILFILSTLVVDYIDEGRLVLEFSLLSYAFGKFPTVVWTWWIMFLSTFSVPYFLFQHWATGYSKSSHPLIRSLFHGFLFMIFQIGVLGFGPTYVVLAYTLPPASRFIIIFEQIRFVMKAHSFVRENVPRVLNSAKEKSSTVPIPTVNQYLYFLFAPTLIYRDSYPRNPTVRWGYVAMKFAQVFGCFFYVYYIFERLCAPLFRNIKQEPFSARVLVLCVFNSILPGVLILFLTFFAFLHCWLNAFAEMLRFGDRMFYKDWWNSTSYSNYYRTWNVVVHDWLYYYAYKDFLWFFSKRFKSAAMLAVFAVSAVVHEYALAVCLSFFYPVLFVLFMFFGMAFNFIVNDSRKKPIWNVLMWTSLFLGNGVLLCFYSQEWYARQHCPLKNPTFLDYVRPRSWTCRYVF
UniProt P35270: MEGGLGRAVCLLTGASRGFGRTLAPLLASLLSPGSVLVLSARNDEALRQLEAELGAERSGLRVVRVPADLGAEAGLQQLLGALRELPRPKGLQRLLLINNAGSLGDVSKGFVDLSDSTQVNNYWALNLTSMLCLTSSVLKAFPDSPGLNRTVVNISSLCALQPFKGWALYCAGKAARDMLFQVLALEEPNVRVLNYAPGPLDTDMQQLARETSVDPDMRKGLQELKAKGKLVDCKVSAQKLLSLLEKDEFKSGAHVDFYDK
UniProt P37268: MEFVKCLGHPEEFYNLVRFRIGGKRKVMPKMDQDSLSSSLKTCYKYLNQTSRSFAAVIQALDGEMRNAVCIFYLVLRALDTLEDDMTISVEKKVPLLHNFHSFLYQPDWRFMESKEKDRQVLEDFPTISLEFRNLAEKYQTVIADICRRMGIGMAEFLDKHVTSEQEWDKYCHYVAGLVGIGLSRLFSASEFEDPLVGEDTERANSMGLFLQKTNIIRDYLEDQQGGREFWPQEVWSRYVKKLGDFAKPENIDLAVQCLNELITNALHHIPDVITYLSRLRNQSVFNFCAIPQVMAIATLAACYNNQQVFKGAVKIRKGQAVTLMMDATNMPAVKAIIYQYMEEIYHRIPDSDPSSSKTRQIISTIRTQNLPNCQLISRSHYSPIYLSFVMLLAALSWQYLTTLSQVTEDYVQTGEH
UniProt P36969, whole entry: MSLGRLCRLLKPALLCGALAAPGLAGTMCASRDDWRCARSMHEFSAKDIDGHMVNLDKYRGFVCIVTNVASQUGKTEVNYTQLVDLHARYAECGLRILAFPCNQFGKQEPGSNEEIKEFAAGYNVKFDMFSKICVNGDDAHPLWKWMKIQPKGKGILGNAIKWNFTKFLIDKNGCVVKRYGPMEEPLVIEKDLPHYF
UniProt P35713: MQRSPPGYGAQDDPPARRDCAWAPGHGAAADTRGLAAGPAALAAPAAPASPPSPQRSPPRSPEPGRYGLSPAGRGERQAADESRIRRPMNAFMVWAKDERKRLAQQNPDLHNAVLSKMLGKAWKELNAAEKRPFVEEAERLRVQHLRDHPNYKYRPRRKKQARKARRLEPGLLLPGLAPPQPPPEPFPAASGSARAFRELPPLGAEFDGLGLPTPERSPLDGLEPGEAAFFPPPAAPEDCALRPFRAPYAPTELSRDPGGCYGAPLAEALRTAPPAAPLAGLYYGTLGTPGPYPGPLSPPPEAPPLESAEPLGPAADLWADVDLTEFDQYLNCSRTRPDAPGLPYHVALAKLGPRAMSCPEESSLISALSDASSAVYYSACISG
UniProt P31949: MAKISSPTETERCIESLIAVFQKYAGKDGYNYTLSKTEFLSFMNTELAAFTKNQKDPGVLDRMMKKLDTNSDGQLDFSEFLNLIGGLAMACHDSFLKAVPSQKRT
UniProt P43243: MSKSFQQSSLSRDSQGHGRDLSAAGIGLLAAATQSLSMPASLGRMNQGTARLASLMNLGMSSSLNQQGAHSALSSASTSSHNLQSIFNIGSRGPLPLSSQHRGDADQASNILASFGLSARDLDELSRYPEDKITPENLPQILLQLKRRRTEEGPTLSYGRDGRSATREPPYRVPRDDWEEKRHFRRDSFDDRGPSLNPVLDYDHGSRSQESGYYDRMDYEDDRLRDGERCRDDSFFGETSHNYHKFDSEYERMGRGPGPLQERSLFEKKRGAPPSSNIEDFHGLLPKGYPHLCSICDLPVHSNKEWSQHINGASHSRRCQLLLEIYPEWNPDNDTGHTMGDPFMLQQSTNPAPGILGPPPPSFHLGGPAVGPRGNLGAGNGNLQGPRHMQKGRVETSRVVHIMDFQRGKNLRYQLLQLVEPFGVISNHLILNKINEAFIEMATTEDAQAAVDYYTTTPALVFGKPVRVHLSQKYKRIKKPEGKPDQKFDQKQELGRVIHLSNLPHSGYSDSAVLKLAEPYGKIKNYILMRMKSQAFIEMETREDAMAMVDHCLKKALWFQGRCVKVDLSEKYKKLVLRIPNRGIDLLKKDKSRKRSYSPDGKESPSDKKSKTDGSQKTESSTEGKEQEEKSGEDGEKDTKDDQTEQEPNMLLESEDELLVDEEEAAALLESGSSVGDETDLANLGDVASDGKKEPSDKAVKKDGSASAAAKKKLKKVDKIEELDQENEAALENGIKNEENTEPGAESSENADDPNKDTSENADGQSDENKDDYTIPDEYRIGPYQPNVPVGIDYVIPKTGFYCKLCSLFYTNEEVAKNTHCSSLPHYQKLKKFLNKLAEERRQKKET
UniProt P31153, whole entry, looked up: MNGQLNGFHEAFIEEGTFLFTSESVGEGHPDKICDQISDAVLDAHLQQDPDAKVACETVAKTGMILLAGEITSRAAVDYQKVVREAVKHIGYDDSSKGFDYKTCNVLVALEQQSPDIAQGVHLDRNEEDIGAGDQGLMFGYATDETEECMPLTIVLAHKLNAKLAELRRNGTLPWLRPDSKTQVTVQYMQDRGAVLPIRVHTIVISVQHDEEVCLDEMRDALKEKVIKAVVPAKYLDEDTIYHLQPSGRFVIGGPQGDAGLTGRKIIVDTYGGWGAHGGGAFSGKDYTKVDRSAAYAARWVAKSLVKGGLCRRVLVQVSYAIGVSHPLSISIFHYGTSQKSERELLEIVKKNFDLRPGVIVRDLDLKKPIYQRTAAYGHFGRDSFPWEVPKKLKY
UniProt P36915, whole entry: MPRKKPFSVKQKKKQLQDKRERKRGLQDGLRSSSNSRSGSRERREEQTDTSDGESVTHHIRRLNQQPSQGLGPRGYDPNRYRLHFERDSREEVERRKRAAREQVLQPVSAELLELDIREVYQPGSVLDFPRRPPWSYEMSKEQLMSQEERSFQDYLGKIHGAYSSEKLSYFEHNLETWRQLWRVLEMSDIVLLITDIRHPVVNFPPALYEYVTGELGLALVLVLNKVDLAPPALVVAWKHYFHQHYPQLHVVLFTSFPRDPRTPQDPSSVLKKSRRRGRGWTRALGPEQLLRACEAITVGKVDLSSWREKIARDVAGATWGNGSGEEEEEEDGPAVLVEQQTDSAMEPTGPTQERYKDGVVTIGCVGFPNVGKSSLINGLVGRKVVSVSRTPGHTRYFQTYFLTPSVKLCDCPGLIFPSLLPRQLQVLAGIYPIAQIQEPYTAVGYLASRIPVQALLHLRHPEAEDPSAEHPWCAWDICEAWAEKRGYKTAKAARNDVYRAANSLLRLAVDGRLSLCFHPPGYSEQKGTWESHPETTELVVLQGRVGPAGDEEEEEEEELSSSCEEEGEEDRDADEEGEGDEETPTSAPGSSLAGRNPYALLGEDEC

Some of the results follow. Most entries show no effect beyond the scatter of the controls.

Compound in this test: Cc1nc(Nc2ncc(C(=O)Nc3c(C)cccc3Cl)s2)cc(N2CCN(CCO)CC2)n1 [dasatinib]
The experiment in a line: log2 fold change of tryptic peptide abundance, ligand vs vehicle (limited proteolysis) (log2 ratio); higher = more trypsin-susceptible (destabilized). The conditions noted are these: ligand concentration: 5 uM; sample: K562 cleared lysate.
As for “EPHX2 (peptide sequence: TEEALALPR, peptide start residue: 26) (UniProt P34913)”, the log2 fold change amounted to 0.206.
Consider “CBS (peptide sequence: CVVILPDSVR, peptide start residue: 370) (UniProt P35520)”, for which the log2 fold change is 0.16.
Consider “UniProt P41279 (peptide sequence: SAYPSYLYIIHK, peptide start residue: 334)”, for which the log2 fold change was -0.0784.
On to “LTBR (peptide sequence: AWHLAETEHCGATPSNR, peptide start residue: 409) (UniProt P36941)”, for which the log2 fold change worked out at 0.21.
Take “ARRB2 (peptide sequence: LKHEDTNLASSTIVK, peptide start residue: 294) (UniProt P32121)”: the log2 fold change is -0.218.
“ALDH4A1 (peptide sequence: QVAQNLDRFHTFPR, peptide start residue: 297) (UniProt P30038)”: the log2 fold change is 0.494.
For “EIF1 (peptide sequence: KNICQFLVEIGLAKDDQLK, peptide start residue: 91) (UniProt P41567)” the value was 0.141; for “HPCAL1 (peptide sequence: LSLEEFIR, peptide start residue: 164) (UniProt P37235)”, 0.0937; for “TSFM (peptide sequence: VPSGFYVGSYVHGAMQSPSLHK, peptide start residue: 207) (UniProt P43897)”, 0.111.
As to “BRCA1 (peptide sequence: DKPVDNAK, peptide start residue: 936) (UniProt P38398)”, the log2 fold change was -0.343.
As to “RFC4 (peptide sequence: GVAASAGSSGENKK, peptide start residue: 21) (UniProt P35249)”, the log2 fold change came to 0.111.
In the case of “RRM2 (peptide sequence: AAAPGVEDEPLLR, peptide start residue: 62) (UniProt P31350)”, the log2 fold change was -0.106.
“HNRNPH3 (peptide sequence: GLPFGCSK, peptide start residue: 117) (UniProt P31942)”: the log2 fold change is -0.085.
In the case of “MAGEA1 (peptide sequence: KLLTQDLVQEK, peptide start residue: 237) (UniProt P43355)”, the log2 fold change is -0.163.
In the case of “SOAT1 (peptide sequence: LTAEAEELKPFFMK, peptide start residue: 54) (UniProt P35610)”, the log2 fold change worked out at 0.328.
In the case of “PRPH (peptide sequence: ISVPVHSFASLNIK, peptide start residue: 407) (UniProt P41219)”, the log2 fold change worked out at 0.435.
On to “SPR (peptide sequence: SGAHVDFYDK, peptide start residue: 252) (UniProt P35270)”, for which the log2 fold change is -0.132.
“FDFT1 (peptide sequence: CLGHPEEFYNLVR, peptide start residue: 6) (UniProt P37268)”: the log2 fold change was 0.114.
For “PRKAR2B (peptide sequence: LVKDGEHVIDQGDDGDNFYVIDR, peptide start residue: 174) (UniProt P31323)” the value was 0.161; for “LRPPRC (peptide sequence: FSPTDFLAK, peptide start residue: 179) (UniProt P42704)”, 0.0821.
For “GPX4 (peptide sequence: YAECGLR, peptide start residue: 90) (UniProt P36969)” the value was -0.126; for “UniProt P35713 (peptide sequence: RPMNAFMVWAKDER, peptide start residue: 623)”, -0.064; for “HMGCL (peptide sequence: VAQATCKL, peptide start residue: 318) (UniProt P35914)”, 0.067.
As to “S100A11 (peptide sequence: DGYNYTLSK, peptide start residue: 28) (UniProt P31949)”, the log2 fold change worked out at 0.0373.
“MATR3 (peptide sequence: DGSASAAAKK, peptide start residue: 703) (UniProt P43243)”: the log2 fold change is -0.255.
For the target “MAT2A (peptide sequence: RNGTLPWLRPDSK, peptide start residue: 169) (UniProt P31153)”, the log2 fold change worked out at 0.529.
For the target “GNL1 (peptide sequence: REEQTDTSDGESVTHHIRR, peptide start residue: 44) (UniProt P36915)”, the log2 fold change was 0.975.
Consider “NOS3 (peptide sequence: TYVQDILR, peptide start residue: 1086) (UniProt P29474)”, for which the log2 fold change came out at 0.452.
